# Reference: patent US20040171045A1, “Assay for predicting cell activity” (IsoTis N.V., priority 2001, published 2004)
# At least one structure is not confirmed: it was looked up by name or label, or the drawing left a doubt.
# System: human bone marrow stromal cells (HBMSC)
# Assay: Temporal expression of ALP in HBMSC cultures by flow cytometry, (+) dex versus control medium
# Assay type: cell-based
# Conditions: HBMSC of 14 donors; 10^−8 M dex; after the first two days of culture; p<0.05
# Procedure: The expression of ALP was evaluated by flow cytometry at several culture periods (from day 1 to day 9, three to four measurements were performed for each culture). Briefly, after trypsinisation, cells were washed twice in wash buffer and blocked against non-specific binding (see above). Cells (approx. 0.1-0.3E6/staining) were then resuspended in blocking buffer containing: (a) control mouse anti-human IgG2a (1:5 dilution) and (b) ALP monoclonal antibody (1:10 dilution). After incubation on ice for 45 minutes and washing, antibody reactivity was detected by suspending the cells with blocking buffer containing goat anti-mouse IgGγ-chain-specific-FITC (1:5 dilution). Cells were incubated on ice and in the dark for 30 minutes. After washing, the cells were resuspended in 200 μl of FACS-flow/staining and analyzed using a FACS Calibur apparatus (Becton Dickinson Immunocytometry systems). For each measurement 10,000 events were collected.
smiles,measurement,value
"C[C@@H]1C[C@H]2[C@@H]3CCC4=CC(=O)C=C[C@]4(C)[C@@]3(F)[C@@H](O)C[C@]2(C)[C@@]1(O)C(=O)CO [dex, dexamethasone]",Proportion of ALP+ cells in the (+) dex condition as compared to the control,significantly higher
